From PubChem BioAssay AID504467 (National Center for Advancing Translational Sciences (NCATS), 2011)
The campaign covered roughly 330,000 compounds. About 7,700 (2.3%) were called active. The inconclusive results got no clear call from the source; some entries with a clear call stand among them for comparison. Calls come from the whole dose curve; as a rule, active = well fitted inhibition curve with a large enough effect; inconclusive = small, poorly fitted or top-dose-only effect, or effect the other way; inactive = flat fitted curve, though single readings scatter. Potencies beside an inconclusive call are fits to weak or partial responses and may not hold up.

Assay: qHTS screen for small molecules that inhibit ELG1-dependent DNA repair in human embryonic kidney (HEK293T) cells expressing luciferase-tagged ELG1; note: nearly all actives have a fitted effect of over 55% in size
Conditions: HEK293T ELG1-luciferase reporter, luminescence, 16 h, DNA damage induced by 5-fluorouridine; activity change, negative = inhibition: at 46.1 µM (top of the series)
How it was run: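 5-Fluorouridine DNA damage + compound/DMSO, 2,000 cells/well, 16 h, 37 °C/5% CO2. ONE-Glo, 30 min RT, luminescence. Readout = decrease in reporter signal.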
% is set by controls: 0 for no effect and ±100 for the full control effect; potency is the fitted concentration of half-maximal effect.

SMILES	Potency	activity change, negative = inhibition
Cc1ccc(NC(=O)c2ccc(=O)[nH]n2)cc1S(=O)(=O)Nc1ccc(SC(F)F)cc1	inconclusive: 3.26 µM [inhibitor, partial curve]	–
COc1ccc(OCc2cccc(C(=O)N3CCCC3)c2)cc1	inconclusive: 2.31 µM [activator, partial curve]	–
CCOc1cc(C(C(=O)NCC2CCCO2)N(C(=O)Cn2nnc3ccccc32)c2ccccc2C(C)=O)ccc1O (stereo not given)	–	inactive: -1.81%
O=C(c1ccccn1)N1CCCC(N2CCN(c3ccc(F)cc3)CC2)C1 (stereo not given)	–	inactive: 27.5%
COc1ccccc1N1CCN(CCCn2c(=S)[nH]c3ccccc3c2=O)CC1	inconclusive: 18.3 µM [inhibitor, partial curve]	–
Cc1cccc(OCCCn2c(CCNC(=O)C(C)C)nc3ccccc32)c1	inconclusive: 29.1 µM [inhibitor, single point]	–
Cc1[nH]c2ccccc2c1C(=O)COC(=O)c1nccnc1N	inconclusive: 18.3 µM [activator, single point]	–
CC(C)(C)NC(=O)CSc1nsc(SCC(=O)NC(C)(C)C)c1C#N	active: 9.2 µM	–
Cc1ccc(S(=O)(=O)CCC(=O)N2CCN(c3ccc([N+](=O)[O-])cc3)CC2)cc1	inconclusive: 13 µM [inhibitor, partial curve, poor fit]	–
COc1ccccc1NS(=O)(=O)c1cc(NC(=O)CCc2nc3ccccc3c(=O)[nH]2)ccc1C	active: 13 µM	–
O=C(Nc1ccccn1)c1cc2cc([N+](=O)[O-])ccc2s1	inconclusive: 2.91 µM [activator, partial curve]	–
CN1CCC/C1=C1/C(=O)N(c2ccccc2)N=C1NC(=O)Nc1cccc(Cl)c1	inconclusive: 20.6 µM [inhibitor, partial curve]	–
CC(C)N(C(=S)Nc1cc(S(=O)(=O)N2CCOCC2)ccc1Cl)c1ccccc1	inconclusive: 20.6 µM [activator, partial curve, poor fit]	–
COc1ccccc1-c1cc(C(=O)N/N=C/c2ccoc2)c2ccccc2n1	inconclusive: 4.11 µM [inhibitor, full curve]	–
C/C=C/C1=CC(=O)C[C@H](c2ccc3c(c2)OCO3)C1	–	inactive: 9.63%
Cc1ccc(NC(=O)c2ccc([N+](=O)[O-])o2)cc1S(=O)(=O)N1CCOCC1	inconclusive: 18.3 µM [inhibitor, single point]	–
Cc1ccc(/C(C#N)=C\c2cn(C)c3ccccc23)cc1	inconclusive: 7.31 µM [activator, partial curve]	–
O=C(NCc1cccc(F)c1)c1cccc2c1C(=O)c1ccc(N3CCCC3)cc1S2(=O)=O	inconclusive: 10.3 µM [inhibitor, partial curve]	–
CN(CC1CCOCC1)C(=O)CC1C(=O)NCCN1CC1CCCCC1 (stereo not given)	–	inactive: -7.42%
CCCCn1c(SCC(=O)N2CCN(c3ccccc3)CC2)nc2ccsc2c1=O	inconclusive: 20.6 µM [inhibitor, single point]	–
Cc1ccc(Nc2nc(CSc3n[nH]c(N)n3)cs2)cc1	inconclusive: 2.59 µM [activator, full curve]	–
Cc1ccc2nc(NC(=O)CN3CCOCC3)sc2c1	inconclusive: 23.1 µM [activator, partial curve]	–
Cc1cc(C)n(C(=O)N(c2ccccc2)c2ccccc2)n1	–	inactive: -0.828%
COc1ccc(C2CC(=O)c3cnc(N4CCc5ccccc54)nc3C2)cc1OC (stereo not given)	–	inactive: -3.05%

Molecules above that have nitrogen in an aromatic ring, in the order listed:
SMILES	Potency	activity change, negative = inhibition
Cc1ccc(NC(=O)c2ccc(=O)[nH]n2)cc1S(=O)(=O)Nc1ccc(SC(F)F)cc1	inconclusive: 3.26 µM [inhibitor, partial curve]	–
CCOc1cc(C(C(=O)NCC2CCCO2)N(C(=O)Cn2nnc3ccccc32)c2ccccc2C(C)=O)ccc1O (stereo not given)	–	inactive: -1.81%
O=C(c1ccccn1)N1CCCC(N2CCN(c3ccc(F)cc3)CC2)C1 (stereo not given)	–	inactive: 27.5%
COc1ccccc1N1CCN(CCCn2c(=S)[nH]c3ccccc3c2=O)CC1	inconclusive: 18.3 µM [inhibitor, partial curve]	–
Cc1cccc(OCCCn2c(CCNC(=O)C(C)C)nc3ccccc32)c1	inconclusive: 29.1 µM [inhibitor, single point]	–
Cc1[nH]c2ccccc2c1C(=O)COC(=O)c1nccnc1N	inconclusive: 18.3 µM [activator, single point]	–
CC(C)(C)NC(=O)CSc1nsc(SCC(=O)NC(C)(C)C)c1C#N	active: 9.2 µM	–
COc1ccccc1NS(=O)(=O)c1cc(NC(=O)CCc2nc3ccccc3c(=O)[nH]2)ccc1C	active: 13 µM	–
O=C(Nc1ccccn1)c1cc2cc([N+](=O)[O-])ccc2s1	inconclusive: 2.91 µM [activator, partial curve]	–
COc1ccccc1-c1cc(C(=O)N/N=C/c2ccoc2)c2ccccc2n1	inconclusive: 4.11 µM [inhibitor, full curve]	–
Cc1ccc(/C(C#N)=C\c2cn(C)c3ccccc23)cc1	inconclusive: 7.31 µM [activator, partial curve]	–
CCCCn1c(SCC(=O)N2CCN(c3ccccc3)CC2)nc2ccsc2c1=O	inconclusive: 20.6 µM [inhibitor, single point]	–
Cc1ccc(Nc2nc(CSc3n[nH]c(N)n3)cs2)cc1	inconclusive: 2.59 µM [activator, full curve]	–
Cc1ccc2nc(NC(=O)CN3CCOCC3)sc2c1	inconclusive: 23.1 µM [activator, partial curve]	–
Cc1cc(C)n(C(=O)N(c2ccccc2)c2ccccc2)n1	–	inactive: -0.828%
COc1ccc(C2CC(=O)c3cnc(N4CCc5ccccc54)nc3C2)cc1OC (stereo not given)	–	inactive: -3.05%

An excerpt from above in order of number of heavy atoms, rising:
SMILES	Potency	activity change, negative = inhibition
C/C=C/C1=CC(=O)C[C@H](c2ccc3c(c2)OCO3)C1	–	inactive: 9.63%
Cc1ccc2nc(NC(=O)CN3CCOCC3)sc2c1	inconclusive: 23.1 µM [activator, partial curve]	–
Cc1ccc(NC(=O)c2ccc(=O)[nH]n2)cc1S(=O)(=O)Nc1ccc(SC(F)F)cc1	inconclusive: 3.26 µM [inhibitor, partial curve]	–

Next part:

SMILES	Potency	activity change, negative = inhibition
CN(C)c1ccc(C(=S)N2CCN(c3ccccc3)CC2)cc1	inconclusive: 18.4 µM [activator, single point]	–
O=C(C1CCN(S(=O)(=O)c2cccs2)CC1)N1CCCC(C(F)(F)F)C1 (stereo not given)	–	inactive: -0.557%
CCCCCC(=O)N1CC2(CC(c3cccc(NC(=O)CC)c3)=NO2)C[C@H]1C(N)=O (stereo not given in full)	–	inactive: 1.81%
O=C(Nc1nc(-c2ccccn2)cs1)c1ccc2c(c1)OCCO2	inconclusive: 2.31 µM [activator, partial curve]	–
Cc1cc(=O)n2nc(-c3ccccc3)sc2n1	inconclusive: 20.6 µM [activator, partial curve]	–
CCC(CO)Oc1cc(NC(=O)c2ccc(C)cc2)c2ncn(C(C)C)c2c1 (stereo not given)	inconclusive: 16.4 µM [inhibitor, single point]	–
CCOCc1nnc(NC(=O)CCC2CCCCC2)s1	inconclusive: 1.26 µM [activator, single point]	–
COCCN(CCOC)c1nc(-c2ccc(Cl)cc2)nc2ccccc12	inconclusive: 25.9 µM [inhibitor, single point]	–
Cc1nnc(C)n1/N=C/c1cccc(Oc2ccccc2)c1	inconclusive: 29.1 µM [activator, single point]	–
Cc1nn(-c2ccccc2)c(C)c1/C=N/n1c(-c2ccc(C(C)(C)C)cc2)n[nH]c1=S	–	inactive: -21.2%
NC(=O)CC(NC(=O)Cc1cccc2ccccc12)c1ccc(N2CCc3ccccc3C2)c([N+](=O)[O-])c1 (stereo not given)	inconclusive: 16.4 µM [inhibitor, partial curve, poor fit]	–
OC(CNCC1COc2ccccc2O1)COCc1cccs1 (stereo not given)	–	inactive: 11.6%
CCCc1cc(=O)oc2c3c(cc(OCC(=O)NCC4CCC(C(=O)O)CC4)c12)OC(C)(C)CC3 (stereo not given)	–	inactive: 11%
CC(=O)c1ccc(OCC(=O)Nc2c(C)nn(-c3ccccc3)c2C)cc1	inconclusive: 35.5 µM [inhibitor, single point]	–
O=S(=O)(NCCN1CCOCC1)c1cccc(C(F)(F)F)c1	–	inactive: 0.145%
Oc1[nH]c2ccccc2c1N=Nc1nc2ccccc2s1	inconclusive: 0.92 µM [activator, partial curve]	–
CC(C)CC(NC(N)=O)C(=O)OCC(=O)NC(=O)NC1CCCC1 (stereo not given)	inconclusive: 18.4 µM [activator, partial curve, poor fit]	–
C=CCNC(=S)/N=c1/scc(C)n1C	inconclusive: 20.6 µM [activator, partial curve]	–
COCC(=O)Nc1ccc(Br)c(C)c1	inconclusive: 23.1 µM [activator, partial curve, poor fit]	–
O=C(CNS(=O)(=O)c1cccc(Cl)c1)Nc1ccc(-c2nc3ccccc3s2)cc1	inconclusive: 4.61 µM [activator, partial curve]	–
Cc1c(CN2CCC(CO)(Cc3cccc(C(F)(F)F)c3)CC2)c2ccccc2n1C	–	inactive: -4.8%
CN1COc2ccc3ccccc3c2C1	–	inactive: 3.82%
Cc1ccc(NC(=O)N2CCc3ccccc3C2)c(C)c1	inconclusive: 29.1 µM [activator, single point]	–
COc1ccc(NC(=O)c2cc(C3CC3)on2)c(OC)c1	inconclusive: 13 µM [activator, partial curve]	–

SMILES	Potency	activity change, negative = inhibition
CNC(=O)CSc1cn(CC(=O)N(C(C)C)C(C)C)c2ccccc12	–	inactive: 0%
CC(C)(C)c1cc(NC(=O)COC(=O)c2ccc(O)cc2O)n(-c2ccccc2)n1	inconclusive: 16.4 µM [inhibitor, partial curve]	–
Cc1c(CN2CCC(CO)(CC3CCCCO3)CC2)cnn1C (stereo not given)	–	inactive: 6.57%
CCOC(=O)c1ccc(N2C(=O)C(O)=C(C(C)=O)C2c2ccccn2)cc1 (stereo not given)	inconclusive: 32.6 µM [activator, partial curve, poor fit]	–
COc1ccc(C(=O)Nc2nc3c(s2)Cc2cc(OC)ccc2-3)cc1	inconclusive: 15.8 µM [inhibitor, single point]	–
COc1ccccc1CNC(=O)COC(=O)c1cc(=O)[nH]c2ccccc12	–	inactive: 8.38%
CCCc1nnc(NC(=O)Nc2ccc(OC)cc2)s1	inconclusive: 10.3 µM [activator, partial curve, poor fit]	–
CC(OC(=O)C1CC(=O)N(Cc2ccco2)C1)C(=O)Nc1ccc(F)cc1Cl (stereo not given)	inconclusive: 13 µM [activator, partial curve, poor fit]	–
O=C1COc2ccc(-c3csc(NCCc4ccccc4)n3)cc2N1	inconclusive: 23.1 µM [inhibitor, single point]	–
O=C(O)C1CCCN1C(=O)Nc1ccccc1 (stereo not given)	inconclusive: 23.1 µM [activator, partial curve, poor fit]	–
COc1cccc(NC(=O)COc2cc(O)c3c(c2)OC(C)(C)CC3=O)c1	inconclusive: 0.517 µM [activator, partial curve]	–
Cc1ccc(-c2ccc(/C=N/NC(=O)CN3CCCC3)o2)cc1Cl	–	inactive: 11.9%
Nc1[nH]n(-c2ccccc2)c(=O)c1N=Nc1ccc2c(c1)OCCO2	inconclusive: 2.31 µM [activator, partial curve]	–
O=C(CSc1nnc(-c2n[nH]c3ccccc23)n1-c1ccccc1)Nc1cccc(Cl)c1	inconclusive: 18.4 µM [inhibitor, partial curve]	–
c1ccc(OCCSc2nnc3sc4ccccc4n23)cc1	inconclusive: 0.731 µM [activator, full curve]	–
Cc1ccc(C(=O)/C=C/c2ccc3c(c2)OCO3)o1	inconclusive: 25.9 µM [activator, single point]	–
Cc1ccc(CNCc2ccccc2Cl)cc1	–	inactive: 5.73%
COc1ccc(C(c2nnnn2C(C)(C)C)N2CCN(c3nc4ccccc4s3)CC2)cc1OC (stereo not given)	–	inactive: -14.6%
O=C(c1cc2ccccc2o1)N1CCN(c2ncccn2)CC1	–	inactive: 22%
Cc1cnc(NC(=O)CSc2ccccc2)s1	inconclusive: 16.4 µM [activator, partial curve]	–
CSc1nc(N)nc(SCC(=O)Nc2ccc(Cl)cc2)c1C#N	–	inactive: -2.63%
CCOC(=O)C1=C(C)OC(N)=C(C(=O)OCC)C1c1ccncc1 (stereo not given)	inconclusive: 20.6 µM [activator, single point]	–
